Values joined by “and” are separate entries in the source; they are usually repeats but may differ in a detail not shown here. Identical values can stand only once. Counter-ions that a name gives are not always drawn.
System: OATP1B2
Assay: Untargeted metabolomics of plasma and DRG, WT vs OATP1B2-deficient mice
Assay type: in vivo, mouse
[1] = untargeted metabolomics, WT vs OATP1B2-deficient mice, supplement sheet "Figure 5B" (volcano plot)
[2] = untargeted metabolomics, sheet "Figure 5C", WT vs OATP1B2-deficient mice
[3] = untargeted metabolomics, WT vs OATP1B2-deficient mice, supplement sheet "Figure 5B"
[4] = Figure 5B source data (volcano plot), untargeted metabolomics, WT vs OATP1B2-deficient mice, log2 fold change of metabolite level

Compound | Log2FoldChange [1] | Log2FoldChange [2] | other results
O=C(O)CCCCCCC(O)CC(=O)O (stereo not shown) [3-hydroxysebacate] | 0.263 |  | 
CCCCC/C=C\C/C=C\C/C=C\C/C=C\CCCCCC(=O)O [adrenate (22:4n6)] |  | 0.6508 | 
O=C(O)Cc1cn([C@@H]2O[C@H](CO)[C@@H](O)[C@H]2O)cn1 [1-ribosyl-imidazoleacetate*] | 0.7137 | 0.251 | 
CCCCCC/C=C\CCCCCCCC(=O)OC[C@@H](O)COP(=O)([O-])OCC[N+](C)(C)C [1-palmitoleoyl-GPC (16:1)*] | 0.9782 | 0.2016 | 
CNCC(=O)O [sarcosine] | 0.4647 |  | 
N[C@@H](Cc1ccc(O)cc1)C(=O)O [tyrosine] |  | 0.2265 | 
CC(=O)NC(Cc1c[nH]c2ccccc12)C(=O)O (stereo not shown) [N-acetyltryptophan] |  | 0.3561 | Log2FoldChange [3]: 0.111
O=C(O)CC[C@H](NC(=O)C(O)(CC(=O)O)CC(=O)O)C(=O)O [beta-citrylglutamate] |  | 0.2016 | 
CCCCCC(=O)NCC(=O)O [hexanoylglycine] | 0.669 |  | 
CC(CCC[C@@H](C)[C@H]1CC[C@H]2[C@@H]3[C@H](O)CC4=CC(=O)CC[C@]4(C)[C@H]3CC[C@]12C)C(=O)O (stereo partly shown) | 0.3448 |  | 
CC(C)(CO)[C@@H](O)C(=O)NCCC(=O)NCCS [pantetheine] |  | 0.2388 | 
O=C(O)[C@H]1O[C@@H](Oc2ccccc2O)[C@H](O)[C@@H](O)[C@@H]1O [catechol glucuronide] |  |  | Log2FoldChange [3]: -0.1203
Cc1occc(=O)c1OS(=O)(=O)O [maltol sulfate] |  |  | Log2FoldChange [3]: -0.0145
O=C(O)[C@@H](O)[C@@H](O)[C@H](O)[C@@H](O)CO [gulonate*] |  |  | Log2FoldChange [3]: 0.2016
CSCCC(NC(C)=O)C(=O)O (stereo not shown) [N-acetylmethionine] |  | 0.3103 | 
NC(=O)NCCC(=O)O [3-ureidopropionate] |  | -0.1047 | Log2FoldChange [3]: 0.08406
CCCCCCCC/C=C\CCCCCCCC(=O)O[C@H](COC(=O)CCCCCCCCCCCCCCCCC)COP(=O)(O)OCCN [1-stearoyl-2-oleoyl-GPE (18:0/18:1)] | 0.275 | -0.3771 | 
CCCCCCCCCCCCCCCCCC(=O)OC[C@@H](O)COP(=O)(O)OC[C@H](N)C(=O)O [1-stearoyl-GPS (18:0)*] |  | -0.1681 | 
CCCCCCCCCCCCCCCC(O)CC(=O)O (stereo not shown) [3-hydroxystearate] |  |  | Log2FoldChange [4]: -0.3401
NC(=O)c1cccnc1 [nicotinamide] |  |  | Log2FoldChange [3]: -0.0145
CCC(N)C(=O)O (stereo not shown) [2-aminobutyrate] |  |  | Log2FoldChange [4]: -0.2176
CC(C)C(O)C(=O)O (stereo not drawn) [alpha-hydroxyisovalerate] | 0.7485 | 1.202 | 
C[N+](C)(C)C[C@@H](CC(=O)[O-])OC(=O)CCC(=O)O [succinylcarnitine (C4-DC)] | 0.6508 | -0.3219 | 
Nc1nc2c(ncn2[C@@H]2O[C@H](CO)[C@@H](O)[C@H]2O)c(=O)[nH]1 [guanosine] | 1.599 | 0.05658 | 
CC(C)CCC[C@@H](C)[C@H]1CC[C@H]2[C@@H]3CC=C4C[C@@H](O)CC[C@]4(C)[C@H]3CC[C@]12C [cholesterol] |  | -0.1047 | 
CCCCCCCCCCCCCCC(O)C(=O)O (stereo not shown) [2-hydroxypalmitate] |  | 0.4222 | 
CCCCCCCCCCCCCC/C=C/OCC(COP(=O)([O-])OCC[N+](C)(C)C)OC(=O)CCCCCCCCCCCCCCC (stereo not shown) | 0.3103 | -0.1681 | 
NC(=O)NCCC[C@H](N)C(=O)O [citrulline] |  | 0.111 | Log2FoldChange [3]: -0.074

Compound | Log2FoldChange [1] | Log2FoldChange [2] | other results
CCC/C=C/C(=O)NCC(=O)O [trans-2-hexenoylglycine] | 0.2265 |  | 
NC(=O)CCC(=O)C(=O)O [alpha-ketoglutaramate*] | 0.2388 | 0.3219 | 
CC(O)(CCO)CC(=O)O (stereo not shown) [mevalonate] | 0.3103 |  | 
O=c1[nH]cnc2nc[nH]c12 [hypoxanthine] | 0.6508 | 0.08406 | 
CCCCCC(=O)OC(CC(=O)[O-])C[N+](C)(C)C (stereo not shown) [hexanoylcarnitine (C6)] | 0.7049 | 0.3448 | 
O=S(=O)(O)Oc1ccccc1 [phenol sulfate] |  |  | Log2FoldChange (mouse, in vivo): 0.4854 and 0.585
CCCCCCCCCCCCCCCCCC(=O)N[C@@H](CO)C(=O)O [N-stearoylserine*] |  | 0.5261 | Log2FoldChange [4]: -1.059
O=C(O)CCCCCCCCCCCCCCC(=O)O [hexadecanedioate (C16-DC)] | 1.07 |  | 
CCCCC/C=C\C/C=C\C/C=C\C/C=C\CCCC(=O)OC(COC(=O)CCCCCCCCCCCCCCCCC)COP(=O)(O)OC1C(O)C(O)C(O)C(O)C1O (stereo not shown) |  | -0.1047 | 
C[C@H](CCC(=O)O)[C@H]1CC[C@H]2[C@@H]3[C@@H](O)C[C@@H]4C[C@H](O)CC[C@]4(C)[C@H]3CC[C@]12C [ursodeoxycholate] | 2.025 |  | 
C[N+](C)(C)CCOP(=O)([O-])OC[C@H](O)CO [glycerophosphorylcholine (GPC)] | 0.4222 | 0.2016 | 
CCCCCCCC/C=C\CCCCCC/C=C\OCC(COP(=O)(O)OCCN)OC(=O)CCCCCCC/C=C\CCCCCCCC (stereo not shown) |  | -0.1681 | 
CCCCCC(O)CC(=O)OC(CC(=O)[O-])C[N+](C)(C)C (stereo not shown) [3-hydroxyoctanoylcarnitine (1)] |  | -0.0145 | 
CCCCCCCC(O)CC(=O)OC(CC(=O)[O-])C[N+](C)(C)C (stereo not shown) [3-hydroxydecanoylcarnitine] |  | 0.263 | 
NC(N)=NCCCC(=O)O [4-guanidinobutanoate] | 0.3785 | 0.6041 | 
CC/C=C\C/C=C\C/C=C\CCCCCCCC(=O)O[C@H](COC(=O)CCCCCCC/C=C\CCCCCC)COP(=O)([O-])OCC[N+](C)(C)C | 0.8953 |  | 
COc1cc(CC(O)C(=O)O)ccc1O (stereo not shown) [vanillactate] |  |  | Log2FoldChange [3]: 0.1763
CCCCCCCC(O)CC(=O)O (stereo not shown) [3-hydroxydecanoate] |  | -0.2345 | Log2FoldChange [3]: -0.1203
O=C(O)/C=C\c1c[nH]cn1 [cis-urocanate] |  |  | Log2FoldChange [3]: -0.1203
CC(=O)NCCCCN [N-acetylputrescine] |  | 0.856 | Log2FoldChange [3]: 0.1763
CO[C@@H]1[C@H](O)[C@@H](CO)O[C@H]1n1ccc(N)nc1=O [2'-O-methylcytidine] |  | 0.189 | Log2FoldChange [3]: 0.1375
O=C(O)C[C@H](Nc1ncnc2c1ncn2[C@@H]1O[C@H](CO)[C@@H](O)[C@H]1O)C(=O)O [N6-succinyladenosine] |  | 0.9928 | Log2FoldChange [3]: 0.2016
CC(=O)N[C@@H](CC(N)=O)C(=O)O [N-acetylasparagine] |  |  | Log2FoldChange [3]: 0.08406
CC(=O)N[C@@H](CCC(N)=O)C(=O)O [N-acetylglutamine] |  | 0.3219 | Log2FoldChange [4]: -0.1844
CCCCC/C=C\C/C=C\CCCCCCCC(=O)O [linoleate (18:2n6)] |  | 0.3561 | 
O=C(O)CCCCCCCCCCCCCCCCCC(=O)O [nonadecanedioate (C19-DC)] | 0.5261 |  | 
N[C@@H](CSSC[C@H](N)C(=O)NCC(=O)O)C(=O)NCC(=O)O [cys-gly, oxidized] |  | -0.6897 | 

Source: article PMC10443802 (JCI Insight, 2023)
